## Results of single-concentration screens

Measurements from “University of Dundee, Small-Polar-MMV Screening Library” (2021), ChEMBL document CHEMBL3988442.

Mtb cholesterol medium: 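Growth of Mycobacterium tuberculosis over 4 days (cholesterol / DPPC medium with tyloxapol); the read-out is not stated. Compounds at 50 µM. Higher reads as more growth inhibition (inferred: compounds with an IC50 in retests scored well above the rest). About 69,000 compounds were tested under these conditions; 0.54% (about 370) showed 50% or more at least once.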
Mtb glucose medium: 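Phenotypic screen: M. tuberculosis growth, glucose 7H9 medium, 3 days; the read-out is not stated. Compounds at 50 µM. The record gives no direction; compounds that gave an IC50 in retests scored well above the rest, so higher reads as more growth inhibition. About 69,000 compounds were tested under these conditions; 1.1% (about 760) showed 50% or more at least once.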

The filed quantity is “Percent Effect” (%). The controls that fix the scale are not given in the record; negative values are as filed. This is an unselected part of the compounds tested. Two or more numbers in one place are separate tests of the same structure; such repeats can differ widely.

| # | SMILES | Mtb cholesterol medium | Mtb glucose medium |
|---|---|---|---|
| 1 | `Cn1cc(CN(Cc2ccccn2)Cc2ccccc2Cl)cn1` | -10.99% | 15.85% |
| 2 | `Cc1ccc(NC2CCN(C(=O)CCCc3ccccn3)CC2)cc1` | 3.44% | 13.64% |
| 3 | `C[C@]1(O)CN(CCO)CC[C@@H]1Oc1cccc(F)c1` | 10.55% | 12.68% |
| 4 | `CNC(=O)COc1cccc(CNC(=O)c2c(C)noc2C(C)C)c1` | -0.325% | 13.78% |
| 5 | `O=C(NCc1nccs1)N1CCOC(c2ccccc2Cl)C1` (configuration not stated) | -11.97% | -21.55% |
| 6 | `Cn1ccc2c(C(=O)NCCCS(C)(=O)=O)cccc21` | 8.512% | 20.6% |
| 7 | `CN(C(=O)OC(C)(C)C)C1CCN(C(=O)c2ccc(Cl)o2)C1` (configuration not stated) | 22.19% | 38.78% |
| 8 | `Cc1nnc2n1CCN(Cc1csc(-c3ccsc3)n1)C2` | 1.261% | 0.2731% and -2.904% |
| 9 | `CC(C)c1ncc2c(n1)CN(Cc1nc(-c3ccsc3)no1)CC2` | 20.75% | 40.31% |
| 10 | `COCCN1CCN(c2ncnc3nc(C)cc(C)c23)CC1` | -18.18% | 2.05% |
| 11 | `O=C(O)c1ccnc(SCc2ccccc2)c1` | -4.601% | -12.04% |
| 12 | `Cc1ccc(C)c(OCCN2CCC(N3CCNC3=O)CC2)c1` | 3.259% | 16.71% |
| 13 | `O=C(CCc1cc(O)no1)N1CCCC(COc2ccc(F)cc2)C1` (configuration not stated) | -0.6602% | -9.637% and -2.983% |
| 14 | `COCc1cc(CNC(=O)c2cccc3c2OCC3)n[nH]1` | -21.54% | -0.4528% |
| 15 | `Cc1ncc(-c2ccccn2)c(CCNC(=O)CCC2CCCO2)n1` (configuration not stated) | -7.952% | 6.343% |
| 16 | `CCNC(=O)c1ccc(CNCc2c(C)nn(C)c2N(C)C)cc1` | -11.51% | 4.296% |
| 17 | `CS(=O)(=O)CCN1CCc2c(ncn2C2CC2)C1` | 3.338% | -8.386% |
| 18 | `O=C1COc2ccc(Br)cc2CN1CC1CC1` | -7.183% | -7.937% |
| 19 | `COc1cccc(-c2ncc(CN3CCOCC(O)C3)s2)c1` (configuration not stated) | -3.638% | 2.215% and -2.747% |
| 20 | `CCN(Cc1cnn(C)c1)C(=O)c1ccccc1O` | -12.22% | 1.782% |
| 21 | `COc1ccc([C@@H]2CN(c3cc(C(=O)O)ccn3)C[C@H]2N(C)C)cc1` | -13.02% | -2.966% |
| 22 | `CCNS(=O)(=O)C1CCN(C(=O)c2c(F)cc(F)cc2F)C1` (configuration not stated) | 2.128% and -5.363% | -11.4% |
| 23 | `O=C(O)C(F)(F)F.O=C(O)C(F)(F)F.[H][C@@]12COC[C@]1([H])[C@@H](OCC1CCN(C)CC1)CN2Cc1c(C)noc1C` | -46.81% | -60.41% |
| 24 | `CCc1ncnc(N2CCOCC2C2CC2)c1F` (configuration not stated) | -5.754% | 6.081% |
| 25 | `CCn1nc2c(cc1=O)CN(Cc1nc3ccccc3o1)CC2` | 10.28% | -26.91% |
| 26 | `CC(C)(C)c1nc(CNC(=O)N2CCc3ccccc3C2CO)no1` (configuration not stated) | 12.69% | 5.628% |
| 27 | `[H][C@]12CNC[C@@]1([H])[C@H](C(=O)NCc1ccccn1)COC2` | 11.88% | 32.44% |
| 28 | `CN(Cc1ccno1)c1nc(C2CCCC2)nc2c1cnn2C` | 8.021% | 24.88% |
| 29 | `CC1(C)CN(CCC(=O)NCc2cccc(Cl)c2)CC[C@]1(C)O` | 11.06% | -3.261% and 8.159% |
| 30 | `COC(=O)NCC(=O)N1CCCC(c2ncc[nH]2)C1` (configuration not stated) | 13.12% | -1.904% |
| 31 | `CC(C)N(C)C(=O)C1CCN(Cc2cnc3ccccn23)CC1` | -9.402% | -23.43% |
| 32 | `CC(C)Oc1ccc(CNC(=O)C2CCC(=O)N2)cn1` (configuration not stated) | -31.22% | -59.12% |
| 33 | `O=C(O)C(F)(F)F.[H][C@@]12CCN(Cc3cccc(C#N)c3)[C@@]1([H])CC(=O)N2CCOC` | -1.007% | 14.95% |
| 34 | `O=C(Nc1ccccc1OCC1CCCCO1)c1ccc(O)nc1` (configuration not stated) | 10.96% | 23.14% |
| 35 | `CC1CN(C)c2ccccc2CN1C(=O)c1cscn1` (configuration not stated) | 10.1% and -0.6588% | -3.445% |
| 36 | `COCCN(Cc1nc2c(cnn2C)c(=O)[nH]1)Cc1ccco1` | -5.267% | -11.19% |
| 37 | `Cc1nc(C)n(CC2CCCN2Cc2cn3c(C)cccc3n2)n1` (configuration not stated) | 1.053% | -19.79% |
| 38 | `CCc1noc(CN(C)C2CCN(c3sccc3C#N)C2=O)n1` (configuration not stated) | -14.81% | -35.57% |
| 39 | `CCc1cnc(CNC(=O)NCCCO)s1` | 13.6% | 2.094% |
| 40 | `CCCc1nc(C)c(C(=O)NS(=O)(=O)c2cccnc2)s1` | -6.185% | -7.922% and 4.006% |
| 41 | `O=C(C1CC2(CCNCC2)CN1)N1CCN(c2cccc(Cl)c2Cl)CC1` (configuration not stated) | 43% | 50.08% |
| 42 | `CCOCC1CN(C(=O)c2ccnnc2)Cc2cnn(C)c21` (configuration not stated) | -30.14% | -12.27% |

The last 4 entries again:

* CCc1cnc(CNC(=O)NCCCO)s1 : Mtb cholesterol medium: 13.6%; Mtb glucose medium: 2.094%
* CCCc1nc(C)c(C(=O)NS(=O)(=O)c2cccnc2)s1 : Mtb cholesterol medium: -6.185%; Mtb glucose medium: -7.922% and 4.006%
* O=C(C1CC2(CCNCC2)CN1)N1CCN(c2cccc(Cl)c2Cl)CC1 (configuration not stated) : Mtb cholesterol medium: 43%; Mtb glucose medium: 50.08%
* CCOCC1CN(C(=O)c2ccnnc2)Cc2cnn(C)c21 (configuration not stated) : Mtb cholesterol medium: -30.14%; Mtb glucose medium: -12.27%